Assay results: patent publication US8642283B2, “Screening assay for agents that alter target of rapamycin activity” (Sanford-Burnham Medical Research Institute, priority 2003, dated 2014)
“Also recorded” adds a separate entry of the source. At least one structure is not confirmed: it was looked up by name or label, or the drawing left a doubt.

Molecular target: T1, native TOR (TOR kinase from rat brain extract) (Rattus norvegicus, UniProt P42346)
T1 construct: the native TOR is preferably whole protein from the elution fraction; tissue Pel-Freeze 56004-2; host or cells: whole rat brain
Assay: Native TOR kinase assay: phosphorylation of immobilized GST~P70 S6 Kinase at Thr389, fluorogenic peroxidase detection
Type: biochemical
Conditions: for Fluorescence (RFU): DTT omitted for wortmannin, 30 C, 60 min, TOR alone 20395, blank 3124

COC[C@H]1OC(=O)c2coc3c2[C@@]1(C)C1=C(C3=O)[C@@H]2CCC(=O)[C@@]2(C)C[C@H]1OC(C)=O [Wn, Wortmannin]
Fluorescence (RFU) (TOR + 100 nM test agent): 24702 RFU | Fluorescence (RFU) (TOR + 1 uM test agent): 5481 RFU | Effect on TOR mediated phosphorylation of the substrate P70 S6 Kinase (in words) (native TOR, GST~P70 S6K Thr389): concentration-dependant inhibitor; also recorded: both an activator and an inhibitor of TOR kinase
